# Among all 330,000 compounds or so, about 7,700 (2.3%) were called active. Inconclusive results, whose numbers are uncertain, are shown with a selection of clear calls. The call rests on the fitted dose curve; in most records, active means well fitted inhibition curve with a large enough effect; inconclusive means small, poorly fitted or top-dose-only effect, or effect the other way; inactive means flat fitted curve, though single readings scatter. Potencies of inconclusive entries are doubtful fits and often do not repeat.
# Test: qHTS screen for small molecules that inhibit ELG1-dependent DNA repair in human embryonic kidney (HEK293T) cells expressing luciferase-tagged ELG1; further: nearly all actives have a fitted effect of over 55% in size
# Settings: HEK293T ELG1-luciferase reporter, luminescence, 16 h, DNA damage induced by 5-fluorouridine; activity change, negative = inhibition: at 46.1 µM (top of the series)
# Outline: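 Luminescence from the luciferase reporter, measured 30 min after ONE-Glo reagent at room temperature, was the read-out. Beforehand, 2,000 cells per well were exposed for 16 hr at 37 °C to 5-fluorouridine together with compound or vehicle.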
# On the % scale 0 is the no-effect control and ±100 the full control effect; potency means the concentration at half of the fitted maximal effect.
Structure (SMILES),Potency,"activity change, negative = inhibition"
CC1CCN(S(=O)(=O)c2ccc3c(c2)oc(=O)n3CC(=O)NCc2ccc3c(c2)OCO3)CC1,active: 10.3 µM,–
CC(=O)NN1C(=O)/C(=C/c2ccc(C(C)C)cc2)SC1=S,"inconclusive: 18.4 µM [activator, single point]",–
COc1ccc(OC)c(Nc2nc(N)nc(-c3cc4ccccc4o3)n2)c1,"inconclusive: 4.11 µM [inhibitor, single point]",–
CCN1CCSc2ccc(C(=O)NCc3ccccc3F)cc21,"inconclusive: 20.6 µM [inhibitor, single point]",–
CC(=O)c1cn(CC(=O)Nc2ccc(C)cc2)c2ccccc12,"inconclusive: 4.61 µM [inhibitor, single point]",–
O=C(c1ccc(N2CCN(C(=O)c3ccccc3)CC2)cc1)c1cccc(F)c1,"inconclusive: 23.1 µM [inhibitor, single point]",–
COc1ccc(-c2c3c(cc4ncn(Cc5ccccc5)c24)COC3=O)cc1,"inconclusive: 13 µM [activator, partial curve, poor fit]",–
CN(Cc1ccccc1)C(=O)COC(=O)c1ccc(Cl)cc1N,–,inactive: -3.84%
Cc1ccc(/C=C/C(=O)NCCc2ccccc2)o1,"inconclusive: 18.3 µM [activator, single point]",–
CCc1nnc(NC(=O)c2ccc(NC(=O)C(C)C)cc2)s1,"inconclusive: 20.6 µM [activator, partial curve]",–
CCc1nc2c(c(=O)[nH]1)C1(CCCC1)Cc1ccccc1-2,–,inactive: 5.25%
CCCC(=O)NC(Nc1cccc(C(F)(F)F)c1)C(Cl)(Cl)Cl (stereo not given),–,inactive: 1.56%
COc1cc2[nH]c(=O)n(CCCCCC(=O)NCCc3c[nH]c4ccccc34)c(=O)c2cc1OC,"inconclusive: 29.1 µM [inhibitor, single point]",–
CCCCCCCNC(=O)C1(CC2CC(c3ccc(Cl)cc3)=NO2)CCN(C(=O)CCCCCBr)CC1 (stereo not given),"inconclusive: 20.6 µM [inhibitor, single point]",–
Cc1cc2oc(=O)sc2cc1NS(=O)(=O)c1cccc2cccnc12,–,inactive: -2.27%
COc1ccc(NC(=O)Nc2nc3ccccc3s2)cc1,"inconclusive: 3.66 µM [activator, full curve]",–
CN(C)CCCOC(=O)c1ccccc1,"inconclusive: 29.1 µM [activator, single point]",–
O=C(CN1CCN(S(=O)(=O)c2cccs2)CC1)N1CCCCC1,"inconclusive: 3.26 µM [activator, single point]",–
O=C(CNS(=O)(=O)c1cccs1)N1CCc2ccccc2C1,"inconclusive: 20.6 µM [activator, partial curve]",–
CCc1ccc(-c2nc(CN3CCC(C(=O)NCCc4ccc(OC)c(OC)c4)CC3)c(C)o2)cc1,–,inactive: -29%
O=C(c1ccc(CSCc2ccccc2F)o1)N1CCN(c2ccc(N3CCOCC3)nn2)CC1,active: 18.4 µM,–
Cc1cc(Cl)ccc1OCC(=O)OCC(=O)NC1CCCC1,"inconclusive: 20.6 µM [activator, partial curve]",–
CCn1c(SCc2nc3ccccc3[nH]2)nnc1-c1cnccn1,"inconclusive: 25.9 µM [activator, single point]",–
COc1ccc(-n2nc([N+](=O)[O-])c(=NCc3cccnc3)n2O)cc1,"inconclusive: 8.2 µM [activator, partial curve]",–

# Looked up by compound from the list above, two records:
Structure (SMILES),Potency,"activity change, negative = inhibition"
O=C(c1ccc(N2CCN(C(=O)c3ccccc3)CC2)cc1)c1cccc(F)c1,"inconclusive: 23.1 µM [inhibitor, single point]",–
CCc1ccc(-c2nc(CN3CCC(C(=O)NCCc4ccc(OC)c(OC)c4)CC3)c(C)o2)cc1,–,inactive: -29%

# Continuation.

Structure (SMILES),Potency,"activity change, negative = inhibition"
CCCCn1c(N)c(N(C)C(=O)C2CC(=O)N(Cc3ccco3)C2)c(=O)[nH]c1=O (stereo not given),"inconclusive: 16.4 µM [activator, partial curve, poor fit]",–
N/C(Cc1ccc(Cl)cc1)=N\OC(=O)C1CCCCC1,"inconclusive: 16.4 µM [activator, single point]",–
Cc1cccc(N(CC(=O)NCCSc2nc3ccccc3s2)S(=O)(=O)c2ccccc2)c1,active: 16.4 µM,–
O=C(Nc1ccccc1N1CCN(C(=O)c2ccccc2)CC1)c1ccc([N+](=O)[O-])o1,"inconclusive: 11.6 µM [inhibitor, single point]",–
Cc1ccc(S(=O)c2ccc(C)cc2)cc1,–,inactive: -5.22%
O=C(N/N=C/c1ccc2c(c1)OCO2)C(=O)N1CCCC1,"inconclusive: 20.6 µM [activator, partial curve]",–
COC(=O)c1ccc(OCC(=O)Nc2ccsc2C(=O)OC)cc1,"inconclusive: 25.9 µM [activator, partial curve, poor fit]",–
CC(=O)Nc1cccc(/C(C)=N/NC(=O)c2cccs2)c1,"inconclusive: 18.4 µM [activator, partial curve]",–
Cc1sc2nc(-c3cccs3)oc(=O)c2c1C,"inconclusive: 20.6 µM [activator, partial curve]",–
COc1ccccc1CCNC(=O)c1ccc(NC(=O)CC2SC(N3CCCC3)=NC2=O)cc1 (stereo not given),–,inactive: -0.203%
CN(C)S(=O)(=O)c1cccc(C(=O)c2nccn2C)c1,"inconclusive: 0.73 µM [inhibitor, single point]",–
O=C1/C(=C/c2cccc(Cl)c2)SC(=S)N1CCC(=O)N1CCCCC1CCO (stereo not given),–,inactive: -26.8%
COc1ccc(C(=O)N2CCN(c3ccccc3)CC2)cc1S(=O)(=O)NC1CC1,"inconclusive: 14.6 µM [activator, partial curve, poor fit]",–
Cc1cc(N2CC(C(=O)NCc3cccs3)CC2=O)ccc1C(C)C (stereo not given),–,inactive: -7.7%
O=C(N/N=C/c1cn(-c2ccccc2)nc1-c1ccc(F)cc1)c1ccc(Br)o1,"inconclusive: 29.1 µM [inhibitor, single point]",–
FC(F)(F)c1cccc(-c2nc3nc(Cl)c(Cl)nc3[nH]2)c1,"inconclusive: 29.1 µM [activator, single point]",–
COc1ccc(N2C(=O)[C@@H]3[C@H](C2=O)[C@H](C(=O)c2ccc(OC(C)=O)cc2)N2N=CC=C[C@@H]32)cc1,"inconclusive: 29.1 µM [activator, single point]",–
COc1cc(/C=C2\Oc3cc(O)ccc3C2=O)ccc1O,"inconclusive: 16.4 µM [activator, partial curve]",–
C(=N\Nc1nc(N2CCCCCC2)nc(N2CCCCCC2)n1)/c1ccccc1,–,inactive: 2.15%
O=C(CN1CSCC1=O)N1CCN(S(=O)(=O)c2cccc(F)c2)CC1,–,inactive: 8.47%
CCn1c(NC(C)=O)c(-c2ccccc2Cl)c(=O)c2ccccc21,–,inactive: 13.7%
CCOC(=O)CNC(=O)CSc1nnc(NC(=O)c2ccccc2Cl)s1,"inconclusive: 23.1 µM [activator, partial curve]",–
Cc1cccc(NC(=O)Cn2c(O)c(N=NC(=O)c3ccncc3)c3ccccc32)c1,–,inactive: -25.3%
Cc1cccc(N2CCN(C(=S)Nc3ccc4nc(N5CCN(C)CC5)cc(C)c4c3)CC2C)c1 (stereo not given),–,inactive: 12.4%

Structure (SMILES),Potency,"activity change, negative = inhibition"
COc1ccc(CN(C(=O)c2cccs2)C(C(=O)NC2CCCCC2)c2ccc3ncccc3c2)cc1 (stereo not given),"inconclusive: 18.4 µM [inhibitor, partial curve]",–
Cc1cccc(NC(=O)Nc2ccccc2)n1,"inconclusive: 10.3 µM [activator, partial curve]",–
Cc1noc(C)c1CSCC(=O)Oc1ccc(N(C)S(=O)(=O)c2ccc(Cl)cc2)cc1,–,inactive: 2%
CCOC(=O)c1nc2sc3c(c2c(=O)[nH]1)CCC(C)C3 (stereo not given),–,inactive: 9.46%
Cc1cccc(C)c1NC(=O)Cn1c(=O)n(CCCC(=O)NCc2ccco2)c(=O)c2sccc21,–,inactive: -11.9%
Cc1cc(NS(=O)(=O)c2ccccc2)c([N+](=O)[O-])cc1C,"inconclusive: 6.51 µM [activator, single point]",–
O=C(O)CC(NCc1ccco1)C(=O)Nc1cccc(O)c1 (stereo not given),–,inactive: 7.41%
Cc1ccc(C(=O)NC(=S)NCC2CCCO2)cc1Br (stereo not given),"inconclusive: 20.6 µM [activator, partial curve]",–
COc1cc2c(cc1NC(=O)c1ccc3c(c1)OCO3)oc1ccccc12,"inconclusive: 14.6 µM [activator, partial curve]",–
Cc1ccccc1Cn1ccc(NC(=O)c2nn(C)cc2[N+](=O)[O-])n1,"inconclusive: 1.64 µM [inhibitor, full curve, poor fit]",–
CC(=O)Nc1cc(C(C)C)c(O)c(C(C)C)c1,–,inactive: 8.63%
Cc1cc(N/N=C/c2ccccc2[N+](=O)[O-])nc(-n2nc(C)cc2C)n1,active: 13 µM,–
O=C(NC(=S)N1CCOCC1)c1cc2ccccc2o1,"inconclusive: 18.3 µM [activator, single point]",–
CC1CCCN(S(=O)(=O)c2ccc(NC(=O)c3cccc(-n4cnnn4)c3)cc2)C1 (stereo not given),"inconclusive: 18.4 µM [inhibitor, single point]",–
C/C(=N/N=C(\C)c1ccccc1O)c1ccccc1O,"inconclusive: 29.1 µM [activator, single point]",–
O=C(Nc1ccc2c(c1)OCO2)c1ccc(N2CCCC2)c([N+](=O)[O-])c1,"inconclusive: 16.4 µM [inhibitor, partial curve]",–
CC1CCCC(C)N1C(=O)c1ccc(S(=O)(=O)NCc2ccco2)cc1 (stereo not given),active: 11.6 µM,–
COc1cc(-c2noc(C)c2C#Cc2ccsc2)cc(OC)c1OC,"inconclusive: 25.9 µM [inhibitor, single point]",–
CC(C)CC(=O)Nc1ccc(C(=O)Nc2cccc(O)c2)cc1,"inconclusive: 20.6 µM [activator, partial curve]",–
O=C(O)CCC(=O)OCCCc1cc2ccccc2c(=O)o1,"inconclusive: 13 µM [activator, partial curve]",–
N/C(=N\OC(=O)c1ccccc1[N+](=O)[O-])c1cccnc1,"inconclusive: 20.6 µM [activator, single point]",–
COc1cc(C(=O)NCC(=O)N/N=C(\C)Cc2ccccc2)cc(OC)c1OC,"inconclusive: 18.3 µM [activator, partial curve, poor fit]",–

# Reference: PubChem BioAssay AID504467 (National Center for Advancing Translational Sciences (NCATS), 2011)
